# Test results reported in the supplement of paper PMC8728848.
# The list shows a part of the results.
# B1: PhypaEULS3 (Physcomitrella patens) (protein)
# chain: MLPVRLHCKADPNFNLAAVPGQGPVMVPFSPNDDFQVWYKDVTMSTRVKDETGSSAFSLINKATGQALRHAPEDLAQCLLADYDSNALDQTVLWTMSEDMGQGYCCIRLASQITRNLDVFRGDKKSGGVKEGSPVITFAWKKQDNQIWKMITAILEQKLISEEDLNSAVDHHHHHH
# What was measured:
# Assay in all cases: glycan array binding signal (z-score within array); higher = stronger binding
# Conditions in all cases: glycan notation: IUPAC condensed, linker removed
# [1] = target: Fuc(a1-2)[Gal(a1-3)]Gal(b1-4)GlcNAc(b1-2)Man(a1-3)[Fuc(a1-2)[Gal(a1-3)]Gal(b1-4)GlcNAc(b1-2)Man(a1-6)]Man(b1-4)GlcNAc(b1-4)[Fuc(a1-6)]GlcNAc
# In short: (§1)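 From the Consortium for Functional Glycomics database, 3228 arrays were curated, keeping only those whose protein sequence was available. Binding is given as a within-array Z-score averaged across arrays sharing a protein sequence and across linkers. Negative Z-scores can be read as non-binding.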
# [2] = target: Fuc(a1-2)[Gal(a1-3)]Gal(b1-4)GlcNAc(b1-3)GalNAc
# In short: as §1
# [3] = target: Fuc(a1-2)[Gal(a1-3)]Gal(b1-4)GlcNAc(b1-3)[Fuc(a1-2)[Gal(a1-3)]Gal(b1-4)GlcNAc(b1-6)]GalNAc
# In short: as §1
# [4] = target: Fuc(a1-2)[Gal(a1-3)]Gal(b1-4)GlcNAc(b1-6)GalNAc
# In short: as §1
# [5] = target: Fuc(a1-2)[Gal(a1-3)]Gal(b1-4)[Fuc(a1-3)]Glc
# In short: as §1
# [6] = target: Fuc(a1-2)[Gal(a1-3)]Gal(b1-4)[Fuc(a1-3)]GlcNAc
# In short: as §1
# [7] = target: Fuc(a1-2)[Gal(a1-3)]Gal(b1-4)[Fuc(a1-3)]GlcNAc(b1-3)GalNAc
# In short: as §1
# [8] = target: Fuc(a1-2)[Gal(a1-4)]Gal(b1-4)GlcNAc
# In short: as §1
# [9] = target: Fuc(a1-2)[GalNAc(a1-3)]Gal
# In short: as §1
# [10] = target: Fuc(a1-2)[GalNAc(a1-3)]Gal(b1-3)GalNAc(a1-3)[Fuc(a1-2)]Gal(b1-4)GlcNAc
# In short: as §1
# [11] = target: Fuc(a1-2)[GalNAc(a1-3)]Gal(b1-3)GalNAc(b1-3)Gal(a1-4)Gal(b1-4)Glc
# In short: as §1
# [12] = target: Fuc(a1-2)[GalNAc(a1-3)]Gal(b1-3)GlcNAc
# In short: as §1
# [13] = target: Fuc(a1-2)[GalNAc(a1-3)]Gal(b1-3)GlcNAc(b1-2)Man(a1-3)[Fuc(a1-2)[GalNAc(a1-3)]Gal(b1-3)GlcNAc(b1-2)Man(a1-6)]Man(b1-4)GlcNAc(b1-4)GlcNAc
# In short: as §1
# [14] = target: Fuc(a1-2)[GalNAc(a1-3)]Gal(b1-3)GlcNAc(b1-2)Man(a1-3)[Fuc(a1-2)[GalNAc(a1-3)]Gal(b1-3)GlcNAc(b1-2)Man(a1-6)]Man(b1-4)GlcNAc(b1-4)[Fuc(a1-6)]GlcNAc
# In short: as §1
# [15] = target: Fuc(a1-2)[GalNAc(a1-3)]Gal(b1-3)GlcNAc(b1-3)GalNAc
# In short: as §1
# [16] = target: Fuc(a1-2)[GalNAc(a1-3)]Gal(b1-3)GlcNAc(b1-6)GalNAc
# In short: as §1
# [17] = target: Fuc(a1-2)[GalNAc(a1-3)]Gal(b1-4)Glc
# In short: as §1
# [18] = target: Fuc(a1-2)[GalNAc(a1-3)]Gal(b1-4)GlcNAc
# In short: as §1
# [19] = target: Fuc(a1-2)[GalNAc(a1-3)]Gal(b1-4)GlcNAc(b1-2)Man
# In short: as §1
# [20] = target: Fuc(a1-2)[GalNAc(a1-3)]Gal(b1-4)GlcNAc(b1-2)Man(a1-3)[Fuc(a1-2)[GalNAc(a1-3)]Gal(b1-4)GlcNAc(b1-2)Man(a1-6)]Man(b1-4)GlcNAc(b1-4)GlcNAc
# In short: as §1
# [21] = target: Fuc(a1-2)[GalNAc(a1-3)]Gal(b1-4)GlcNAc(b1-2)Man(a1-3)[Fuc(a1-2)[GalNAc(a1-3)]Gal(b1-4)GlcNAc(b1-2)Man(a1-6)]Man(b1-4)GlcNAc(b1-4)[Fuc(a1-6)]GlcNAc
# In short: as §1
# [22] = target: Fuc(a1-2)[GalNAc(a1-3)]Gal(b1-4)GlcNAc(b1-3)Gal(b1-4)GlcNAc
# In short: as §1
# [23] = target: Fuc(a1-2)[GalNAc(a1-3)]Gal(b1-4)GlcNAc(b1-3)Gal(b1-4)GlcNAc(b1-3)Gal(b1-4)GlcNAc
# In short: as §1
# [24] = target: Fuc(a1-2)[GalNAc(a1-3)]Gal(b1-4)GlcNAc(b1-3)GalNAc
# In short: as §1
# [25] = target: Fuc(a1-2)[GalNAc(a1-3)]Gal(b1-4)GlcNAc(b1-3)[Fuc(a1-2)[GalNAc(a1-3)]Gal(b1-4)GlcNAc(b1-6)]GalNAc
# In short: as §1
# [26] = target: Fuc(a1-2)[GalNAc(a1-3)]Gal(b1-4)GlcNAc(b1-6)GalNAc
# In short: as §1
# [27] = target: Fuc(a1-2)[GalNAc(a1-3)]Gal(b1-4)[Fuc(a1-3)]GlcNAc
# In short: as §1
# [28] = target: Fuc(a1-2)[GalNAc(a1-3)]Gal(b1-4)[Fuc(a1-3)]GlcNAc(b1-3)GalNAc
# In short: as §1
# [29] = target: Fuc(a1-2)[GalNAc(a1-4)]Gal(b1-4)GlcNAc
# In short: as §1
# [30] = target: Fuc(a1-2)[GalNAc(b1-3)]Gal
# In short: as §1
# Fuc(a1-3)GlcNAc = target: Fuc(a1-3)GlcNAc
# In short: as §1
# [31] = target: Fuc(a1-3)[Gal(b1-4)]Glc6S
# In short: as §1
# [32] = target: Fuc(a1-3)[Gal(b1-4)]GlcNAc
# In short: as §1
# [33] = target: Fuc(a1-3)[Gal(b1-4)]GlcNAc(b1-2)Man
# In short: as §1
# [34] = target: Fuc(a1-3)[Gal(b1-4)]GlcNAc(b1-2)Man(a1-3)[Fuc(a1-3)[Gal(b1-4)]GlcNAc(b1-2)Man(a1-6)]Man(b1-4)GlcNAc(b1-4)GlcNAc
# In short: as §1
# [35] = target: Fuc(a1-3)[Gal(b1-4)]GlcNAc(b1-2)Man(a1-3)[Fuc(a1-3)[Gal(b1-4)]GlcNAc(b1-2)Man(a1-6)]Man(b1-4)GlcNAc(b1-4)[Fuc(a1-6)]GlcNAc
# In short: as §1
# [36] = target: Fuc(a1-3)[Gal(b1-4)]GlcNAc(b1-3)Gal(b1-3)[Fuc(a1-4)]GlcNAc
# In short: as §1
# [37] = target: Fuc(a1-3)[Gal(b1-4)]GlcNAc(b1-3)Gal(b1-4)[Fuc(a1-3)]GlcNAc
# In short: as §1
# [38] = target: Fuc(a1-3)[Gal(b1-4)]GlcNAc(b1-3)Gal(b1-4)[Fuc(a1-3)]GlcNAc(b1-3)Gal(b1-4)[Fuc(a1-3)]GlcNAc
# In short: as §1
# [39] = target: Fuc(a1-3)[Gal(b1-4)]GlcNAc(b1-3)GalNAc
# In short: as §1
# [40] = target: Fuc(a1-3)[Gal(b1-4)]GlcNAc(b1-6)GalNAc
# In short: as §1
# [41] = target: Fuc(a1-3)[Gal(b1-4)]GlcNAc(b1-6)[Gal(b1-3)GlcNAc(b1-3)]Gal(b1-4)Glc
# In short: as §1
# [42] = target: Fuc(a1-3)[Gal(b1-4)]GlcNAc6S
# In short: as §1
# [43] = target: Fuc(a1-3)[Gal3S(b1-4)]Glc
# In short: as §1
# [44] = target: Fuc(a1-3)[Gal3S(b1-4)]GlcNAc
# In short: as §1
# [45] = target: Fuc(a1-3)[Gal3S(b1-4)]GlcNAc6S
# In short: as §1
# [46] = target: Fuc(a1-3)[GalNAc(b1-4)]GlcNAc
# In short: as §1
# [47] = target: Fuc(a1-3)[GalNAc(b1-4)]GlcNAc6S
# In short: as §1
# Fuc(a1-4)GlcNAc = target: Fuc(a1-4)GlcNAc
# In short: as §1
# Fuc(b1-3)GlcNAc = target: Fuc(b1-3)GlcNAc
# In short: as §1
# Gal(a1-2)Gal = target: Gal(a1-2)Gal
# In short: as §1
# Gal(a1-3)Gal = target: Gal(a1-3)Gal
# In short: as §1
# Gal(a1-3)Gal(b1-3)GlcNAc = target: Gal(a1-3)Gal(b1-3)GlcNAc
# In short: as §1
# [48] = target: Gal(a1-3)Gal(b1-3)GlcNAc(b1-2)Man
# In short: as §1
# [49] = target: Gal(a1-3)Gal(b1-3)GlcNAc(b1-2)Man(a1-3)[Gal(a1-3)Gal(b1-3)GlcNAc(b1-2)Man(a1-6)]Man(b1-4)GlcNAc(b1-4)GlcNAc
# In short: as §1
# [50] = target: Gal(a1-3)Gal(b1-3)GlcNAc(b1-3)GalNAc
# In short: as §1
# [51] = target: Gal(a1-3)Gal(b1-3)GlcNAc(b1-6)GalNAc
# In short: as §1
# [52] = target: Gal(a1-3)Gal(b1-3)[Fuc(a1-4)]GlcNAc(b1-2)Man(a1-3)[Gal(a1-3)Gal(b1-3)[Fuc(a1-4)]GlcNAc(b1-2)Man(a1-6)]Man(b1-4)GlcNAc(b1-4)GlcNAc
# In short: as §1
# Gal(a1-3)Gal(b1-4)Glc = target: Gal(a1-3)Gal(b1-4)Glc
# In short: as §1
# Gal(a1-3)Gal(b1-4)GlcNAc = target: Gal(a1-3)Gal(b1-4)GlcNAc
# In short: as §1
binder,measurement,setting,value
B1,glycan array binding signal (z-score),[1],0.392
same,glycan array binding signal (z-score),[2],-0.824
same,glycan array binding signal (z-score),[3],-0.647
same,glycan array binding signal (z-score),[4],0.22
same,glycan array binding signal (z-score),[5],-1.76
same,glycan array binding signal (z-score),[6],0.806
same,glycan array binding signal (z-score),[7],1.51
same,glycan array binding signal (z-score),[8],0.345
same,glycan array binding signal (z-score),[9],0.168
same,glycan array binding signal (z-score),[10],0.37
same,glycan array binding signal (z-score),[11],0.225
same,glycan array binding signal (z-score),[12],1.23
same,glycan array binding signal (z-score),[13],0.618
same,glycan array binding signal (z-score),[14],1.68
same,glycan array binding signal (z-score),[15],0.893
same,glycan array binding signal (z-score),[16],0.713
same,glycan array binding signal (z-score),[17],0.483
same,glycan array binding signal (z-score),[18],-0.027
same,glycan array binding signal (z-score),[19],0.82
same,glycan array binding signal (z-score),[20],-0.46
same,glycan array binding signal (z-score),[21],0.52
same,glycan array binding signal (z-score),[22],-0.839
same,glycan array binding signal (z-score),[23],-0.951
same,glycan array binding signal (z-score),[24],0.058
same,glycan array binding signal (z-score),[25],1.04
same,glycan array binding signal (z-score),[26],0.589
same,glycan array binding signal (z-score),[27],0.924
same,glycan array binding signal (z-score),[28],0.007
same,glycan array binding signal (z-score),[29],-0.967
same,glycan array binding signal (z-score),[30],-1.84
same,glycan array binding signal (z-score),Fuc(a1-3)GlcNAc,-0.803
same,glycan array binding signal (z-score),[31],-1.15
same,glycan array binding signal (z-score),[32],-0.792
same,glycan array binding signal (z-score),[33],1.34
same,glycan array binding signal (z-score),[34],-1.36
same,glycan array binding signal (z-score),[35],-0.138
same,glycan array binding signal (z-score),[36],0.906
same,glycan array binding signal (z-score),[37],1.15
same,glycan array binding signal (z-score),[38],-0.21
same,glycan array binding signal (z-score),[39],0.727
same,glycan array binding signal (z-score),[40],-0.754
same,glycan array binding signal (z-score),[41],2.22
same,glycan array binding signal (z-score),[42],-0.239
same,glycan array binding signal (z-score),[43],0.385
same,glycan array binding signal (z-score),[44],0.652
same,glycan array binding signal (z-score),[45],1.26
same,glycan array binding signal (z-score),[46],-0.945
same,glycan array binding signal (z-score),[47],1.27
same,glycan array binding signal (z-score),Fuc(a1-4)GlcNAc,-0.148
same,glycan array binding signal (z-score),Fuc(b1-3)GlcNAc,0.35
same,glycan array binding signal (z-score),Gal(a1-2)Gal,-0.381
same,glycan array binding signal (z-score),Gal(a1-3)Gal,0.763
same,glycan array binding signal (z-score),Gal(a1-3)Gal(b1-3)GlcNAc,1.01
same,glycan array binding signal (z-score),[48],0.318
same,glycan array binding signal (z-score),[49],0.405
same,glycan array binding signal (z-score),[50],-1.36
same,glycan array binding signal (z-score),[51],0.611
same,glycan array binding signal (z-score),[52],-1.13
same,glycan array binding signal (z-score),Gal(a1-3)Gal(b1-4)Glc,0.358
same,glycan array binding signal (z-score),Gal(a1-3)Gal(b1-4)GlcNAc,0.743

# Quoted from the results shown for reference:
binder,measurement,setting,value
B1,glycan array binding signal (z-score),[10],0.37
same,glycan array binding signal (z-score),[11],0.225
same,glycan array binding signal (z-score),[12],1.23
same,glycan array binding signal (z-score),[13],0.618
same,glycan array binding signal (z-score),[14],1.68
same,glycan array binding signal (z-score),[15],0.893
same,glycan array binding signal (z-score),[16],0.713
same,glycan array binding signal (z-score),[17],0.483
same,glycan array binding signal (z-score),[18],-0.027
same,glycan array binding signal (z-score),[19],0.82
same,glycan array binding signal (z-score),[20],-0.46
same,glycan array binding signal (z-score),[21],0.52
same,glycan array binding signal (z-score),[22],-0.839
same,glycan array binding signal (z-score),[23],-0.951
same,glycan array binding signal (z-score),[24],0.058
same,glycan array binding signal (z-score),[25],1.04
same,glycan array binding signal (z-score),[26],0.589
same,glycan array binding signal (z-score),[27],0.924
